Measured values as given in publication PMC12646664.

Molecular target: T1, HA-NOD1 (human) (UniProt Q9Y239)
T1 sequence: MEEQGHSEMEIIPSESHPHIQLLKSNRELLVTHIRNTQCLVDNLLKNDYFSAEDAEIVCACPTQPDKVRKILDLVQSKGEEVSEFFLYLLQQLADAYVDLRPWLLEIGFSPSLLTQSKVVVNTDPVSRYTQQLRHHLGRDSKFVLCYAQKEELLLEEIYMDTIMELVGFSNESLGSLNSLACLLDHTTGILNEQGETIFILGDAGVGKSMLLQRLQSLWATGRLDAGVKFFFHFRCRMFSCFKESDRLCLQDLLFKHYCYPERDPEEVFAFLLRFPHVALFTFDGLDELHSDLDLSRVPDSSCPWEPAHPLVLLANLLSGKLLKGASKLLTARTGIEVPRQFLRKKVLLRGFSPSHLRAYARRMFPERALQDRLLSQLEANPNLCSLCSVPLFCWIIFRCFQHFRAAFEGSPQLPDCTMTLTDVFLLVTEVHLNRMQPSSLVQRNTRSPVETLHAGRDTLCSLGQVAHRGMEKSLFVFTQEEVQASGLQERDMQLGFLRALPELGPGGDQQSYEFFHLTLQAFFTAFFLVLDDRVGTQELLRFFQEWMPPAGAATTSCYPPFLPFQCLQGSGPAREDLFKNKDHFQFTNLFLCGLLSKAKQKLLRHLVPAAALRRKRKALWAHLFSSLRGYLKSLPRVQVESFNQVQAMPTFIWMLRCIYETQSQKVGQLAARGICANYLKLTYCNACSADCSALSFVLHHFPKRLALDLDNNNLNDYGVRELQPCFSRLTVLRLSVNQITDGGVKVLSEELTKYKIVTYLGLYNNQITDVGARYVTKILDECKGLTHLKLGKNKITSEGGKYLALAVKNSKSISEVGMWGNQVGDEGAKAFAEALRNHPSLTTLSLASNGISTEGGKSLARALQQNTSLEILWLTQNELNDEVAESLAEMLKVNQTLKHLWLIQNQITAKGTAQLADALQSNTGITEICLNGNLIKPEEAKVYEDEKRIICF
Experiment: co-IP; HA-tagged NOD1/2 immunoprecipitated with anti-HA mAb from lysates of HEK293T cells coexpressing GIV, stimulated or not with MDP; immunoblot

GIV-FLAG
binding: no binding

Results are given in words; binding and its absence hold for the method and conditions named. Binding seen in cells or lysates may run through a third protein. Sequences can lack the tags named with a protein.
